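Pediatric neuroblastoma line NB1643: luminescence-based cell viability readout after two days of compound exposure. Compounds were tested as dilution series reaching roughly 46 µM at the top. Potency is the concentration giving half the fitted maximal cytotoxic effect; a lower value means a more potent compound. Calls come from the fitted curve class and activity score: scores of 40 to 100 are active, 1 to 39 inconclusive, and 0 inactive.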

Values are in µM. All entries here are filed as inconclusive. Only part of the assay is shown, chiefly results filed as inconclusive. A potency from a partial, single-point or poor curve is only a rough figure. Some entries filed as inconclusive have a full curve. The first word of each remark tells which way the curve ran; it can be opposite to the aim of the assay. Activity scores are not listed here.

* Cc1cc(Nc2ncnc3ccc(-c4ccc(CNCCS(C)(=O)=O)o4)cc23)ccc1Oc1ccn2ncnc2c1 | Potency 23.3 µM (cytotoxic, single point)
* COC[C@H](NC(=O)c1cnc(C)s1)C(=O)N[C@@H](COC)C(=O)N[C@@H](Cc1ccccc1)C(=O)[C@@]1(C)CO1 | Potency 0.1649 µM (cytotoxic, full curve, poor fit)
* C[C@H]1C[C@@H]2[C@H]([C@@H](O)C[C@@]3(C)[C@H]2CC[C@]3(O)C(=O)CO)[C@@]2(C)C=CC(=O)C=C12 | Potency 29.33 µM (cytotoxic, partial curve)
* Nc1ccn([C@@H]2O[C@H](CO)[C@H](O)C2(F)F)c(=O)n1 | Potency 0.7367 µM (cytotoxic, full curve, poor fit)
* CC(=O)NCC(=O)N1[C@H]2CC[C@H]1c1cc(Nc3ncc(C(F)(F)F)c(NC4CCC4)n3)ccc12 | Potency 0.0369 µM (cytotoxic, full curve, poor fit)
* NC(=O)Nc1sc(-c2ccc(F)cc2)cc1C(N)=O | Potency 4.143 µM (cytotoxic, partial curve)
* Nc1ncnc2c1ncn2[C@@H]1O[C@@H](CO)[C@H](O)[C@H]1O | Potency 0.0262 µM (rising, full curve)
* O=C(Cc1ccc(-c2ccc(OCCN3CCOCC3)cc2)cn1)NCc1ccccc1 | Potency 0.0827 µM (cytotoxic, full curve)
* CCc1c2c(nc3ccc(O)cc13)-c1cc3c(c(=O)n1C2)COC(=O)[C@]3(O)CC | Potency 0.9275 µM (cytotoxic, full curve, poor fit)

From PubChem BioAssay record AID1347109 (NCATS, 2019).